Results as given in the supplement of paper PMC4604168 (melanoma cell lines).
The list shows a part of the results. Many values rest on one well or one pass, so single values are uncertain.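 Imaging used 1,536-well plates; nuclei positive for cleaved PARP by antibody were divided by total DNA-stained nuclei to yield the apoptosis fraction. Doses for screening kept most cells viable, and cell lines differ markedly in resting and induced cleaved-PARP levels.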

Columns and labels:
Experiment in all cases: cleaved PARP positive nuclei fraction relative to DMSO control; melanoma cells; higher = more apoptosis
Conditions in all cases: library dose: low library concentration; 72 h
CBRC034 = tested on: CBRC034 (line from a melanoma biopsy)
COLO792 = tested on: COLO792
COLO800 = tested on: COLO800
COLO829 = tested on: COLO829
G361 = tested on: G361
IPC-298 = tested on: IPC-298
IST-MEL1 = tested on: IST-MEL1
LB2518-MEL = tested on: LB2518-MEL
LOXIMVI = tested on: LOXIMVI
MEL-HO = tested on: MEL-HO

| SMILES | cleaved PARP positive nuclei fraction (CBRC034) | cleaved PARP positive nuclei fraction (COLO792) | cleaved PARP positive nuclei fraction (COLO800) | cleaved PARP positive nuclei fraction (COLO829) | cleaved PARP positive nuclei fraction (G361) | cleaved PARP positive nuclei fraction (IPC-298) | cleaved PARP positive nuclei fraction (IST-MEL1) | cleaved PARP positive nuclei fraction (LB2518-MEL) | cleaved PARP positive nuclei fraction (LOXIMVI) | cleaved PARP positive nuclei fraction (MEL-HO) |
| --- | --- | --- | --- | --- | --- | --- | --- | --- | --- | --- |
| COc1ccc(C2=N[C@@H](c3ccc(Cl)cc3)[C@@H](c3ccc(Cl)cc3)N2C(=O)N2CCNC(=O)C2)c(OC(C)C)c1 [Nutlin-3] + CC(=O)c1c(C)c2cnc(Nc3ccc(N4CCNCC4)cn3)nc2n(C2CCCC2)c1=O [palbociclib] (first compound 0.1 µM, partner dose 0.04 µM) | 66% | 191% | 78.9% | 68.9% | 111% | 48.1% | 156% | 137% | 164% | 39.8% |
| CCN(CC)CCNC(=O)c1c(C)[nH]c(/C=C2\C(=O)Nc3ccc(F)cc32)c1C [sunitinib] + CCCCCCCCc1ccc(CCC(N)(CO)CO)cc1 [fingolimod] (first compound 0.4 µM, partner dose 2 µM) | 69.8% | 154% | 136% | 172% | 91.9% | 42.8% | 31.2% | 48.9% | 45.4% | 32.1% |
| C[C@@H](N)c1ccc(C(=O)Nc2ccnc3[nH]ccc23)cc1 + CN1CCN(c2ccc3nc(-c4c(N)c5c(F)cccc5[nH]c4=O)[nH]c3c2)CC1 [Dovitinib] (first compound 0.4 µM, partner dose 0.1 µM) | 444% | 155% | 48.9% | 66.6% | 76.7% | 45.6% | 59.9% | 99.2% | 110% | 66.4% |
| CC(=O)O[C@@]12CO[C@@H]1C[C@H](O)[C@@]1(C)C(=O)[C@H](O)C3=C(C)[C@@H](OC(=O)[C@H](O)[C@@H](NC(=O)OC(C)(C)C)c4ccccc4)C[C@@](O)([C@@H](OC(=O)c4ccccc4)[C@H]21)C3(C)C [Docetaxel] + C[C@]1(c2nc3c(C(N)=O)cccc3[nH]2)CCCN1 [Veliparib] (first compound 0.0001 µM, partner dose 1.4 µM) | 106% | 408% | 507% | 254% | 494% | 322% | 154% | 169% | 128% | 77.7% |
| C[C@@H](N)c1ccc(C(=O)Nc2ccnc3[nH]ccc23)cc1 + CS(=O)(=O)c1ccc(C(=O)Nc2ccc(Cl)c(-c3ccccn3)c2)c(Cl)c1 [vismodegib] (first compound 0.4 µM, partner dose 1 µM) | 346% | 110% | 44.2% | 75% | 76.6% | 437% | 63% | 112% | 63.1% | 373% |
| COc1ccc(C2=N[C@@H](c3ccc(Cl)cc3)[C@@H](c3ccc(Cl)cc3)N2C(=O)N2CCNC(=O)C2)c(OC(C)C)c1 [Nutlin-3] + CO[C@H]1C[C@@H]2CC[C@@H](C)[C@@](O)(O2)C(=O)C(=O)N2CCCC[C@H]2C(=O)O[C@H]([C@H](C)C[C@@H]2CC[C@@H](OCCO)[C@H](OC)C2)CC(=O)[C@H](C)/C=C(\C)[C@@H](O)[C@@H](OC)C(=O)[C@H](C)C[C@H](C)/C=C/C=C/C=C/1C [everolimus] (first compound 0.1 µM, partner dose 0.02 µM) | 98.4% | 83.8% | 88.9% | 46.3% | 95.5% | 119% | 128% | 147% | 244% | 273% |
| CCCCCCCCc1ccc(CCC(N)(CO)CO)cc1 [fingolimod] + O=C(O)[C@@H]1[O][Sb](=[O])([O][Sb]2(=[O])[O][C@H]([C@H](O)CO)[C@H](O)[C@H](C(=O)O)[O]2)[O][C@H]([C@H](O)CO)[C@@H]1O [stibogluconate] (first compound 2 µM, partner dose 2 µM) | 102% | 85.1% | 130% | 100% | 120% | 94% | 129% | 46.8% | 79.1% | 70.3% |
| C[C@]1(O)C[C@@H](c2nc(-c3ccc4ccc(-c5ccccc5)nc4c3)c3c(N)nccn32)C1 + C=CCNC1=C2C[C@@H](C)C[C@H](OC)[C@H](O)[C@@H](C)/C=C(\C)[C@H](OC(N)=O)[C@@H](OC)/C=C\C=C(/C)C(=O)NC(=CC1=O)C2=O [Tanespimycin] (first compound 0.4 µM, partner dose 0.002 µM) | 61.6% | 153% | 133% | 131% | 85% | 179% | 34.6% | 105% | 103% | 115% |
| Cn1cnc2c(F)c(Nc3ccc(Br)cc3Cl)c(C(=O)NOCCO)cc21 [selumetinib] + CC(C)C[C@H](NC(=O)[C@H](Cc1ccccc1)NC(=O)c1cnccn1)B(O)O [Bortezomib] (first compound 0.015 µM, partner dose 0.001 µM) | 391% | 51.5% | 119% | 124% | 303% | 233% | 143% | 262% | 288% | 183% |
| Cn1sc(=O)n(Cc2ccccc2)c1=O + Nc1ncn([C@H]2C[C@H](O)[C@@H](CO)O2)c(=O)n1 [decitabine] (first compound 0.4 µM, partner dose 0.1 µM) | 137% | 112% | 68.4% | 154% | 196% | 116% | 70.6% | 128% | 148% | 105% |
| CS(=O)(=O)c1ccc(C(=O)Nc2ccc(Cl)c(-c3ccccn3)c2)c(Cl)c1 [vismodegib] + C[C@@H](Oc1cc(-c2cnn(C3CCNCC3)c2)cnc1N)c1c(Cl)ccc(F)c1Cl [Crizotinib] (first compound 1 µM, partner dose 0.2 µM) | 68.9% | 48.8% | 86.4% | 135% | 110% | 146% | 52.6% | 54.3% | 87.7% | 43.2% |
| C[C@]1(O)C[C@@H](c2nc(-c3ccc4ccc(-c5ccccc5)nc4c3)c3c(N)nccn32)C1 + CCCCCCCCc1ccc(CCC(N)(CO)CO)cc1 [fingolimod] (first compound 0.4 µM, partner dose 2 µM) | 79% | 101% | 196% | 56.9% | 190% | 92.4% | 201% | 117% | 119% | 87.5% |
| COc1ccc(C2=N[C@@H](c3ccc(Cl)cc3)[C@@H](c3ccc(Cl)cc3)N2C(=O)N2CCNC(=O)C2)c(OC(C)C)c1 [Nutlin-3] + COc1ccc(Cl)c(Nc2nc3ccccc3nc2NS(=O)(=O)c2cccc(NC(=O)C(C)(C)N)c2)c1 [XL147] (first compound 0.1 µM, partner dose 0.8 µM) | 70.9% | 66.9% | 143% | 18.7% | 63.5% | 85.2% | 71.3% | 242% | 60.2% | 233% |
| NC(=O)c1ccc(N(C(N)=O)c2c(F)cccc2F)nc1-c1ccc(F)cc1F + NC1(c2ccc(-c3nc4ccn5c(=O)[nH]nc5c4cc3-c3ccccc3)cc2)CCC1 [MK2206] (first compound 0.4 µM, partner dose 0.4 µM) | 36% | 201% | 216% | 29.4% | 220% | 81.9% | 147% | 133% | 187% | 62% |
| CS(=O)(=O)c1ccc(C(=O)Nc2ccc(Cl)c(-c3ccccn3)c2)c(Cl)c1 [vismodegib] + CC(C)C[C@H](NC(=O)[C@H](Cc1ccccc1)NC(=O)c1cnccn1)B(O)O [Bortezomib] (first compound 1 µM, partner dose 0.001 µM) | 101% | 74.5% | 107% | 76.9% | 352% | 77.7% | 91% | 133% | 155% | 20.8% |
| Cn1sc(=O)n(Cc2ccccc2)c1=O + COc1ccc(Cl)c(Nc2nc3ccccc3nc2NS(=O)(=O)c2cccc(NC(=O)C(C)(C)N)c2)c1 [XL147] (first compound 0.4 µM, partner dose 0.8 µM) | 116% | 36.3% | 102% | 82.8% | 108% | 47.2% | 32% | 112% | 56.2% | 47.4% |
| CN(c1ncccc1CNc1nc(Nc2ccc3c(c2)CC(=O)N3)ncc1C(F)(F)F)S(C)(=O)=O + C[C@@H](Oc1cc(-c2cnn(C3CCNCC3)c2)cnc1N)c1c(Cl)ccc(F)c1Cl [Crizotinib] (first compound 0.08 µM, partner dose 0.2 µM) | 146% | 99.1% | 81.8% | 138% | 79% | 37.3% | 303% | 100% | 115% | 29.8% |
| Cn1cnc2c(F)c(Nc3ccc(Br)cc3Cl)c(C(=O)NOCCO)cc21 [selumetinib] + Cn1nnc2c(C(N)=O)ncn2c1=O [temozolomide] (first compound 0.015 µM, partner dose 2 µM) | 222% | 113% | 115% | 70.3% | 192% | 70.8% | 139% | 133% | 94.7% | 122% |
| CCN(CC)CCNC(=O)c1c(C)[nH]c(/C=C2\C(=O)Nc3ccc(F)cc32)c1C [sunitinib] + C[C@@H](Oc1cc(-c2cnn(C3CCNCC3)c2)cnc1N)c1c(Cl)ccc(F)c1Cl [Crizotinib] (first compound 0.4 µM, partner dose 0.2 µM) | 90.7% | 107% | 118% | 129% | 135% | 84.3% | 256% | 103% | 39.4% | 54.1% |

Laid out differently: results already given.
SMILES	cleaved PARP positive nuclei fraction (CBRC034)	cleaved PARP positive nuclei fraction (COLO792)	cleaved PARP positive nuclei fraction (COLO800)	cleaved PARP positive nuclei fraction (COLO829)	cleaved PARP positive nuclei fraction (G361)	cleaved PARP positive nuclei fraction (IPC-298)	cleaved PARP positive nuclei fraction (IST-MEL1)	cleaved PARP positive nuclei fraction (LB2518-MEL)	cleaved PARP positive nuclei fraction (LOXIMVI)	cleaved PARP positive nuclei fraction (MEL-HO)
CS(=O)(=O)c1ccc(C(=O)Nc2ccc(Cl)c(-c3ccccn3)c2)c(Cl)c1 [vismodegib] + C[C@@H](Oc1cc(-c2cnn(C3CCNCC3)c2)cnc1N)c1c(Cl)ccc(F)c1Cl [Crizotinib] (first compound 1 µM, partner dose 0.2 µM)	68.9%	48.8%	86.4%	135%	110%	146%	52.6%	54.3%	87.7%	43.2%
C[C@]1(O)C[C@@H](c2nc(-c3ccc4ccc(-c5ccccc5)nc4c3)c3c(N)nccn32)C1 + CCCCCCCCc1ccc(CCC(N)(CO)CO)cc1 [fingolimod] (first compound 0.4 µM, partner dose 2 µM)	79%	101%	196%	56.9%	190%	92.4%	201%	117%	119%	87.5%
